Assay [1] deals with ReNCell VM. Put plainly: neuronal differentiation score (DCX+ cell fraction vs untreated, manual image score) (score (-3 to 3)); higher = more neuronal differentiation. Conditions: 2 uM, 2 weeks.
For assay [2], the system named is ReNCell VM. Put plainly: dopaminergic neuron differentiation score (TH+ cell fraction vs untreated, manual image score) (score (0 to 3)); higher = more TH+ dopaminergic neuron differentiation. Conditions: 2 uM, 4 weeks, BDNF 10 ng/ml + GDNF 10 ng/ml.

Where a name gives a salt, the structure may show the parent alone. The list shows a part of the results. This data set is noisy: repeats of one test often differ as much as different tests do.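 Human fetal ventral-midbrain neural progenitor line ReNCell VM, differentiated without mitogens. Images stained for doublecortin (early neurons) or tyrosine hydroxylase (dopaminergic neurons) were scored by blinded raters against untreated wells (0 = no change). Repeats and both raters were averaged, and compounds averaging 2 or higher were picked as hits for retesting.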

For `Cc1cnc(C(=O)O)c[n+]1[O-]` [Acipimox], the neuronal differentiation score with ReNCell VM [1] (library: Prestwick) was inactive: 0. Moreover, the “dopaminergic neuron differentiation score” value with ReNCell VM [2] (library: Prestwick) was inactive: 0.

With `C[C@@](Cc1ccc(O)c(O)c1)(NN)C(=O)O` [Carbidopa], in the assay on ReNCell VM [1] (library: Prestwick), the neuronal differentiation score is inactive: 0. The “dopaminergic neuron differentiation score” value in the assay with ReNCell VM [2] (library: Prestwick) is inactive: 0.

For the compound `COc1ccc(C(=O)c2ccccc2)c(O)c1` [Oxybenzone], the neuronal differentiation score in the assay on ReNCell VM [1] (library: Prestwick) is inactive: 0. In addition, in the assay with ReNCell VM [2] (library: Prestwick), the “dopaminergic neuron differentiation score” value was inactive: 0.

In the case of `O/N=C/c1ccc(-c2ccc(O)c(F)c2)c(Cl)c1O`, the neuronal differentiation score in the assay with ReNCell VM [1] (library: Tocriscreen) is inactive: 0. In addition, the “dopaminergic neuron differentiation score” value with ReNCell VM [2] (library: Tocriscreen) is inactive: 0.

Regarding `CC1(C)O[C@@H]2C[C@H]3[C@@H]4C[C@H](F)C5=CC(=O)C=C[C@]5(C)[C@@]4(F)[C@@H](O)C[C@]3(C)[C@]2(C(=O)CO)O1`, the neuronal differentiation score in the assay on ReNCell VM [1] (library: Spectrum) was inactive: 0. For the same compound, the “dopaminergic neuron differentiation score” value with ReNCell VM [2] (library: Spectrum) is inactive: 0.

As for `CCCCN1CCCC1CNC(=O)c1cc(C#N)c2ccccc2c1OC` (stereo not drawn) [Nafadotride], the neuronal differentiation score in the assay on ReNCell VM [1] (library: Tocriscreen) was inactive: -3. Also, in the assay on ReNCell VM [2] (library: Tocriscreen), the “dopaminergic neuron differentiation score” value is inactive: 0.

Turning to `O=P(O)(O)C(Cl)(Cl)P(=O)(O)O` [Clodronic acid], in the assay on ReNCell VM [1] (library: LOPAC), the neuronal differentiation score was inactive: 0. Moreover, the “dopaminergic neuron differentiation score” value in the assay with ReNCell VM [2] (library: LOPAC) was inactive: 0.

As to `Cn1c(-c2ccc3c(c2)OCO3)cc(=O)c2ccccc21` [Graveoline], the neuronal differentiation score in the assay on ReNCell VM [1] (library: Phytochemical) is inactive: 0. For the same compound, the “dopaminergic neuron differentiation score” value with ReNCell VM [2] (library: Phytochemical) is inactive: 0.

In the case of `O=C1CC2(CCCC2)CC(=O)N1CCNCC1COc2ccccc2O1` (stereo not drawn), in the assay with ReNCell VM [1] (library: Tocriscreen), the neuronal differentiation score was inactive: 0. The “dopaminergic neuron differentiation score” value with ReNCell VM [2] (library: Tocriscreen) is inactive: 0.

Regarding `NC[C@H]1O[C@H](O[C@H]2[C@H](O)[C@@H](O[C@H]3O[C@H](CO)[C@@H](O)[C@H](N)[C@H]3O)[C@H](N)C[C@@H]2N)[C@H](N)[C@@H](O)[C@@H]1O`, the neuronal differentiation score with ReNCell VM [1] (library: Spectrum) was inactive: 0. For the same compound, the “dopaminergic neuron differentiation score” value in the assay on ReNCell VM [2] (library: Spectrum) was inactive: 0.

Take `C[N+]1(CCCCC[N+]2(C)CCCC2)CCCC1` [Pentolinium bitartrate]: the neuronal differentiation score in the assay on ReNCell VM [1] (library: Prestwick) was inactive: 0. The “dopaminergic neuron differentiation score” value in the assay with ReNCell VM [2] (library: Prestwick) was inactive: 0.

Turning to `CCN(CC)Cc1cc(Nc2ccnc3cc(Cl)ccc23)ccc1O`, the neuronal differentiation score in the assay with ReNCell VM [1] (library: Spectrum) is inactive: 0. Further, in the assay with ReNCell VM [2] (library: Spectrum), the “dopaminergic neuron differentiation score” value was inactive: 0.

With `CC(C)(C)NCC(O)c1cc(O)cc(O)c1` (stereo not drawn), the neuronal differentiation score in the assay on ReNCell VM [1] (library: Spectrum) is inactive: 1. Further, the “dopaminergic neuron differentiation score” value in the assay on ReNCell VM [2] (library: Spectrum) is inactive: 0.

With `C/C(=C\COc1cc(=O)[nH]c2ccccc12)CCC(O)C(C)(C)O` (stereo not drawn) [bucharaine], the neuronal differentiation score in the assay on ReNCell VM [1] (library: Natural) was inactive: 0. For the same compound, the “dopaminergic neuron differentiation score” value in the assay with ReNCell VM [2] (library: Natural) was inactive: 0.

Turning to `CC(=O)N(CC(O)CO)c1c(I)c(C(=O)NCC(O)CO)c(I)c(C(=O)NCC(O)CO)c1I` (stereo not drawn), in the assay on ReNCell VM [1] (library: Spectrum), the neuronal differentiation score was inactive: 0. For the same compound, the “dopaminergic neuron differentiation score” value in the assay on ReNCell VM [2] (library: Spectrum) is inactive: 0.

As to `CCCCCCCCCCCC[C@@H](C(=O)O)[C@H](C)C(=O)O`, the neuronal differentiation score in the assay with ReNCell VM [1] (library: Spectrum) is inactive: 0. Moreover, the “dopaminergic neuron differentiation score” value in the assay on ReNCell VM [2] (library: Spectrum) is inactive: 0.

Turning to `CC1=C2C(O)C(=O)OC3CC4C(C)(C)C(=O)C=C[C@]4(C)C(CC1)[C@]23C` (stereo partly drawn), the neuronal differentiation score in the assay on ReNCell VM [1] (library: Spectrum) is inactive: 0. Further, the “dopaminergic neuron differentiation score” value in the assay with ReNCell VM [2] (library: Spectrum) is inactive: 0.

With `Nc1nc(Cl)nc2c1ncn2[C@@H]1O[C@H](CO)[C@@H](O)[C@@H]1F` [Clofarabine], the neuronal differentiation score in the assay on ReNCell VM [1] (library: Tocriscreen) was inactive: 0. The “dopaminergic neuron differentiation score” value with ReNCell VM [2] (library: Tocriscreen) was inactive: 0.

Consider `O.O.O=C([O-])CN(CCN(CC(=O)[O-])CC(=O)O)CC(=O)O.[Na+].[Na+]`, for which the neuronal differentiation score in the assay with ReNCell VM [1] (library: Spectrum) was inactive: 0. The “dopaminergic neuron differentiation score” value in the assay on ReNCell VM [2] (library: Spectrum) was inactive: 0.

Consider `CC12CCCC(O)(C1)C1CC(C)(C)C1CC2` (stereo not drawn) [beta-CARYOPHYLLENE ALCOHOL], for which the neuronal differentiation score in the assay on ReNCell VM [1] (library: Spectrum) is inactive: 0. For the same compound, in the assay on ReNCell VM [2] (library: Spectrum), the “dopaminergic neuron differentiation score” value was inactive: 0.

With `Cc1cc(=O)n(-c2ccccc2)n1C` [Antipyrine], the neuronal differentiation score in the assay with ReNCell VM [1] (library: Prestwick) is inactive: 0. Moreover, the “dopaminergic neuron differentiation score” value with ReNCell VM [2] (library: Prestwick) is inactive: 0.

Consider `OC[C@@H](O)[C@@H](O)CO`, for which the neuronal differentiation score in the assay with ReNCell VM [1] (library: Spectrum) is inactive: 0. Further, the “dopaminergic neuron differentiation score” value in the assay on ReNCell VM [2] (library: Spectrum) is inactive: 0.

`Cc1cccc(C)c1NC(=O)C[N+](C)(C)C` [Lidocaine N-methyl hydrochloride]: the neuronal differentiation score with ReNCell VM [1] (library: LOPAC) is inactive: 0. Also, in the assay on ReNCell VM [2] (library: LOPAC), the “dopaminergic neuron differentiation score” value was inactive: 0.

As to `CN(C)CCC(c1ccc(Cl)cc1)c1ccccn1` (stereo not drawn), the neuronal differentiation score in the assay on ReNCell VM [1] (library: Spectrum) is inactive: 0. Moreover, the “dopaminergic neuron differentiation score” value in the assay with ReNCell VM [2] (library: Spectrum) is inactive: 0.

Take `C[C@]12CCC(=O)C=C1CC[C@@H]1[C@@H]2CC[C@@]2(C)[C@H]1CC[C@]2(O)C(=O)CO` [Cortexolone]: the neuronal differentiation score in the assay on ReNCell VM [1] (library: LOPAC) was inactive: 0. The “dopaminergic neuron differentiation score” value in the assay with ReNCell VM [2] (library: LOPAC) was inactive: 1.

`C[C@H](CCC(=O)O)[C@H]1CC[C@H]2[C@@H]3CC[C@@H]4C[C@H](O)CC[C@]4(C)[C@H]3CC[C@]12C` [Lithocholic acid]: the neuronal differentiation score with ReNCell VM [1] (library: Prestwick) was inactive: 0. The “dopaminergic neuron differentiation score” value in the assay with ReNCell VM [2] (library: Prestwick) was inactive: 0.

On to `CC1(C)O[C@@H]2[C@@H](CO[C@@]3(COS(N)(=O)=O)OC(C)(C)O[C@@H]23)O1`, for which the neuronal differentiation score in the assay on ReNCell VM [1] (library: Spectrum) is inactive: 0. Besides, in the assay on ReNCell VM [2] (library: Spectrum), the “dopaminergic neuron differentiation score” value was inactive: 0.

As to `COc1cc(-c2coc3cc(O)c(OC)c(O)c3c2=O)cc(O)c1OC`, in the assay with ReNCell VM [1] (library: Spectrum), the neuronal differentiation score was inactive: 0. Also, in the assay on ReNCell VM [2] (library: Spectrum), the “dopaminergic neuron differentiation score” value is inactive: 0.

With `CO/N=C1\C[C@]2(C[C@@H]3C[C@@H](C/C=C(\C)C[C@@H](C)/C=C/C=C4\CO[C@@H]5[C@H](O)C(C)=C[C@@H](C(=O)O3)[C@]45O)O2)O[C@H](/C(C)=C/C(C)C)[C@H]1C`, the neuronal differentiation score in the assay with ReNCell VM [1] (library: Spectrum) was inactive: 0. The “dopaminergic neuron differentiation score” value in the assay on ReNCell VM [2] (library: Spectrum) is inactive: 0.

`CC(=O)N[C@@H](CC(=O)N[C@@H](CCC(=O)O)C(=O)O)C(=O)O`: the neuronal differentiation score in the assay on ReNCell VM [1] (library: Spectrum) is inactive: 0. Further, in the assay with ReNCell VM [2] (library: Spectrum), the “dopaminergic neuron differentiation score” value is inactive: 0.

`CC[C@H](C)[C@H]1O[C@]2(C=C[C@@H]1C)C[C@@H]1C[C@@H](C/C=C(\C)[C@@H](O[C@H]3C[C@H](OC)[C@@H](O[C@H]4C[C@H](OC)[C@@H](O)[C@H](C)O4)[C@H](C)O3)[C@@H](C)/C=C/C=C3\CO[C@@H]4[C@H](OC)C(C)=C[C@@H](C(=O)O1)[C@]34O)O2`: the neuronal differentiation score with ReNCell VM [1] (library: Spectrum) is inactive: 0. In the assay on ReNCell VM [2] (library: Spectrum), the “dopaminergic neuron differentiation score” value was inactive: 0.

Turning to `CN(Cc1cc(Br)cc(Br)c1N)C1CCCCC1`, the neuronal differentiation score in the assay on ReNCell VM [1] (library: Spectrum) was inactive: 0. Also, the “dopaminergic neuron differentiation score” value with ReNCell VM [2] (library: Spectrum) was inactive: 0.

For the compound `Cc1ncc([N+](=O)[O-])n1CCO` [Metronidazole], in the assay with ReNCell VM [1] (library: Prestwick), the neuronal differentiation score was inactive: 0. Besides, the “dopaminergic neuron differentiation score” value with ReNCell VM [2] (library: Prestwick) was inactive: 0.

Consider `OC[C@H]1O[C@@H](n2cnc3c(N[C@H]4CC5CCC4C5)ncnc32)[C@H](O)[C@@H]1O` (stereo partly drawn), for which, in the assay on ReNCell VM [1] (library: LOPAC), the neuronal differentiation score is inactive: 1. In addition, the “dopaminergic neuron differentiation score” value with ReNCell VM [2] (library: LOPAC) is inactive: 0.

The record behind these values is the supplement of paper PMC4635364.
